The subject of one data set is Ae. aegypti adults. As to the kind of experiment: Mosquito bottle bioassay (Example 9). It is filed as in vivo. As to conditions: 24 h exposure; probit analysis. The method, then: Mosquito Colonies. Aedes aegypti adult mosquitoes were obtained from an existing colony at the Centers for Disease Control and Prevention (CDC), Division of Vector-Borne Infectious Diseases (DVBID), Fort Collins, Colo. This colony has been maintained for over fifteen years with no known history of exposure to pesticides. Mosquitoes were reared at 28° C., 85% RH, and a 14:10 h (light:dark) cycle. Larvae were grown in de-ionized water and fed ground liver powder solution ad libitum. Fourth instars were removed and placed in emergence cages, and adults were fed a 2% sucrose solution until assayed. Adults were exposed to test products at 4–7 d after emergence.
(§1) Mosquit Bioassay. Adult mosquitoes were tested using the bottle bioassay method of Brogden, W. G., and McAllister, J. C., J. Am. Mosq. Control Assoc. 14:159–64 (1998), with minor modifications. Natural product extracts were two-fold serially diluted for a total of 8 concentrations ranging from 0.002% to 0.25% in 1.5 ml of acetone. Individual dilutions were added to 250 ml Wheaton glass bottles and capped. Bottles were manipulated to evenly coat all inner surfaces. The caps were removed and bottles were allowed to air-dry overnight. Once bottles were completely dry, 10–50 adult mosquitoes were aspirated into the bottles. Mosquitoes were held in the bottles for 24 h at 23° C. and 85% RH. Morbidity and mortality were recorded at 15, 30, 45, and 60 min and 24 hour intervals. One bottle for each replicate was treated with acetone only and served as a control. The dose-mortality data was evaluated with probit analysis, using the LdP Line software, to determine LC50 and LC90 values.

The next data set concerns Aedes aegypti adults. As to the kind of experiment: Residual activity, treated bottles aged before loading (Example 9). It is filed as in vivo. The method, then: as §1
Data set [1] concerns Xenopsylla cheopis adults. As to the kind of experiment: Residual activity, treated vials aged before loading (Example 9). It is filed as in vivo. The method, then: (§2) Tick and Flea Bioassays. Concentrations of the compounds were prepared by 2-fold serial dilutions of a 0.5% (wt:vol) solution of the extracts in acetone. The approximate toxicity of individual compounds was determined with a total of 8 doses ranging from 0.002% to 0.25%. […] A control treated with acetone only was run with each series. Tick and flea susceptibility was evaluated using a modified disposable pipette method. See, Barnard, D. R., et al., J. Econ. Entomol. 74:466–69 (1981).
(§3) Groups of 10 nymphal I. scapularis and X. cheopis fleas were used in all tests, resulting in a total of 5,240 nymphs and 4,860 fleas exposed to the compounds. The inner surface of 2-dram friction cap vials were treated with the compound/acetone solution, or acetone only as a control, and left to air-dry overnight. Three to 4 holes were made in the plastic cap to allow for air exchange. Nymphal ticks and adult fleas were then placed directly into the vials using forceps. Vials containing ticks or fleas were placed in desiccators for 24 h at 21° C. and 90% RH. Morbidity and mortality was recorded at 1, 2, 4, 8, and 24 h after initial exposure.

A further data set concerns Ixodes scapularis nymphs. Described as above. In kind it is in vivo. The method, then:
as §2, §3

The next data set relates to X. cheopis adults. As to the kind of experiment: Flea bioassay, treated vials (Example 9). In kind it is in vivo. As to conditions: 24 h exposure; probit analysis. The method, then:
Flea Colonies. Adult X. cheopis fleas (1–3 wk old) were obtained from a colony founded more than eight years ago using adults received from Tom Schwan, Rocky Mountain Laboratories, Hamilton, Mont. The area from which these original adult fleas were obtained, and the resulting colony, have no known histories of pesticide exposure.
Tick and Flea Bioassays. Concentrations of the compounds were prepared by 2-fold serial dilutions of a 0.5% (wt:vol) solution of the extracts in acetone. […] A control treated with acetone only was run with each series. Tick and flea susceptibility was evaluated using a modified disposable pipette method. See, Barnard, D. R., et al., J. Econ. Entomol.
The inner surface of 2-dram friction cap vials were treated with the compound/acetone solution, or acetone only as a control, and left to air-dry overnight. Three to 4 holes were made in the plastic cap to allow for air exchange. Nymphal ticks and adult fleas were then placed directly into the vials using forceps. Vials containing ticks or fleas were placed in desiccators for 24 h at 21° C. and 90% RH. Morbidity and mortality was recorded at 1, 2, 4, 8, and 24 h after initial exposure.

Another data set relates to I. scapularis nymphs. As to the kind of experiment: Tick bioassay, modified disposable pipette method, treated vials (Example 9). In kind it is in vivo, Ixodes scapularis. As to conditions: 24 h exposure; probit analysis. The method, then:
Tick Colonies. […] There was no known pesticide used at this location. Ticks were maintained at 21° C., 90% RH, and received a 16:8 h (light:dark) cycle as described in […]. Med. […] Tick and Flea Bioassays. […] A control treated with acetone only was run with each series. Tick and flea susceptibility was evaluated using a modified disposable pipette method. See, Barnard, D. R., et al., J. Econ. […] Three to 4 holes were made in the plastic cap to allow for air exchange. Nymphal ticks and adult fleas were then placed directly into the vials using forceps. Vials containing ticks or fleas were placed in desiccators for 24 h at 21° C. and 90% RH. […] For each time point, if ticks were incapable of movement, maintaining normal posture, leg coordination, ability to right themselves, or any signs of life, they were considered moribund or dead.

The mark [2] stands for this setting: residual activity at 1 week after treatment.
[3] abbreviates: residual activity at 2 weeks after treatment.
Setting [4] is: residual activity at 4 weeks after treatment.

Molecule `C[C@@H]1CCC=C2CCC(C3(C)CO3)C[C@]21C` (some centres unmarked) [Compound 13, valencene-11,12-epoxide] displayed a Slope in the data set with Ae. aegypti adults of 1.581.
On the same count and under the same terms, the figure for `CC(C)=CCc1ccc(O)c(=O)cc1C(C)C` [Compound 11, Nootkatin] is 1.327.
`C=C(C)[C@@H]1CCC2=CC(=O)C[C@@H](C)[C@]2(C)C1` [Compound 8, Nootkatone]: the Slope is reported as 3.858 in the data set on Aedes aegypti adults (setting [2]); 4.953 in the data set on Aedes aegypti adults (setting [3]); 7.772 in the data set on Aedes aegypti adults (setting [4]); 3.107 in data set [1] (setting [2]); 1.931 in data set [1] (setting [3]); 1.95 in data set [1] (setting [4]). In addition, the Slope stood at 2.871 in the data set with Ixodes scapularis nymphs (setting [2]), 2.727 in the data set on Ixodes scapularis nymphs (setting [3]) and 2.871 with Ixodes scapularis nymphs (setting [4]).
For the molecule `C=C(C)C1CCC23OC2C(=O)C[C@@H](C)[C@]3(C)C1` (some centres unmarked) [Compound 17, nootkatone-1,10-epoxide], the Slope in the data set with X. cheopis adults is reported as 2.326; with Ae. aegypti adults, 1.346.
Take `C=C(C=O)C1CCC2=CCC[C@@H](C)[C@]2(C)C1` (some centres unmarked) [Compound 15, valencene-13-aldehyde]: the Slope is 3.392 in the data set on Aedes aegypti adults (setting [2]); 3.136 in the data set with Aedes aegypti adults (setting [3]); 3.211 in data set [1] (setting [2]); 2.859 with Ixodes scapularis nymphs (setting [2]); 5.366 in the data set with X. cheopis adults; 8.714 in the data set on Ae. aegypti adults.
For `C=C(C)[C@@H]1CCC2=CC(=O)C[C@@H](C)[C@]2(C)C1` [Compound 7, Nootkatone], the Slope in the data set on Aedes aegypti adults (setting [2]) amounted to 3.043; in the data set on Aedes aegypti adults (setting [3]), 3.342; with Aedes aegypti adults (setting [4]) it was 2.698; in data set [1] (setting [2]), 2.546; in data set [1] (setting [3]), 2.033; in the data set with Ixodes scapularis nymphs (setting [2]) it was 1.682. The Slope in the data set with Ixodes scapularis nymphs (setting [3]) is given as 1.586; with Ixodes scapularis nymphs (setting [4]) it was 1.609.
Consider `C=C(C)[C@@H]1CCC2=C[C@@H](O)C[C@@H](C)[C@]2(C)C1` [Compound 12, Nootkatol], for which the Slope in the data set on I. scapularis nymphs came to 3.069; in the data set with X. cheopis adults, 2.101; in the data set with Ae. aegypti adults, 3.201.
With `Cc1ccc(C(C)C)cc1O` [Compound 4, Carvacrol], the figures for the Slope with I. scapularis nymphs, with X. cheopis adults and in the data set with Ae. aegypti adults were 3.906, 3.413 and 2.908, respectively.
In the case of `C=C(C)C1CC=C2C=CCC(C)C2(C)C1` (centres unmarked) [Compound 6, Nootkatene], the Slope was determined as 1.833 in the data set on Aedes aegypti adults (setting [2]), 0.533 in the data set with Ixodes scapularis nymphs (setting [2]), 2.022 in the data set on X. cheopis adults and 3.696 in the data set with Ae. aegypti adults.
Take `C=C(C)[C@@H]1CCC2=CC(=O)C[C@@H](C)[C@]2(C)C1` [Compound 9, Nootkatone]: the Slope is 4.336 in the data set on Aedes aegypti adults (setting [2]); 4.014 in the data set on Aedes aegypti adults (setting [3]); 4.169 in the data set with Aedes aegypti adults (setting [4]); 1.633 in data set [1] (setting [2]); 2.571 in data set [1] (setting [3]); 3.135 in data set [1] (setting [4]). Also, the Slope was determined as 1.304 in the data set with Ixodes scapularis nymphs (setting [2]) and 2.649 in the data set on Ixodes scapularis nymphs (setting [3]).
Take `C=C(C)[C@@H]1CCC2=CCC[C@@H](C)[C@]2(C)C1` [Compound 5, Valencene]: the Slope with X. cheopis adults was 6.925; in the data set with Ae. aegypti adults, 3.199.
Regarding `C=C(CO)C1CCC2=CCC[C@@H](C)[C@]2(C)C1` (some centres unmarked) [Compound 10, 13-hydroxy-valencene], the Slope in the data set on Aedes aegypti adults (setting [2]) was 3.286; with Aedes aegypti adults (setting [3]) it was 6.932; in the data set with Aedes aegypti adults (setting [4]), 2.645; in data set [1] (setting [2]), 2.218; in data set [1] (setting [3]), 2.442; in the data set on Ixodes scapularis nymphs (setting [2]), 3.005. Also, the Slope is recorded as 1.781 in the data set on Ixodes scapularis nymphs (setting [3]), 1.285 with Ixodes scapularis nymphs (setting [4]), 3.143 with X. cheopis adults and 2.094 with Ae. aegypti adults.
`C[C@@H]1CC(=O)C2OC23CCC(C2(C)CO2)C[C@@]13C` (some centres unmarked) [Compound 18, nootkatone-1,10-11,12-diepoxide]: the Slope is 1.455 in the data set on X. cheopis adults and 4.472 in the data set with Ae. aegypti adults.

The values are drawn from patent US7129271B2, “Compounds for pest control and methods for their use” (The United States of America as represented by the …, priority 2000, dated 2006).
